Primary screen of a compound library

The values are deposited in ChEMBL (CHEMBL3988442, “University of Dundee, Small-Polar-MMV Screening Library” (2021)).

A: 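Assay on Mycobacterium tuberculosis, filed only as a heat shock assay from Cornell; the read-out is not stated. The concentration is filed as 10 mM, unlikely as a test dose, so the dose is not known. Direction is inferred from retests: higher values go with stronger inhibition. Size under these conditions: about 69,000 compounds, about 930 of them at 50% or above in at least one test.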
B: 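Whole-cell assay for inhibitors of Mycobacterium tuberculosis growth, labelled Cornell in the record; the read-out is not stated. The concentration is filed as 10 mM, unlikely as a test dose, so the dose is not known. The record gives no direction; compounds strong in two other growth screens of this library score well above the rest, so higher reads as stronger inhibition. About 53,000 compounds were tested under these conditions; 1.7% (about 900) showed 50% or more at least once.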

The filed quantity is “Percent Effect” (%).
How 0% and 100% were set is not recorded. Most values in the screen are low, and negative values occur.
The compounds are a random part of those screened.
A dash means the value is not listed here; it may have been measured.

compound,A,B
CCc1nc(C)sc1CN1CC[C@@](O)(C2CC2)[C@H](C)C1,14.36%,-53.96%
Cc1noc(NC(=O)c2ccc(C#N)cc2)n1,69.42%,13.91%
CCc1n[nH]c(C2CN(C(=O)c3ccc4c(c3)CCC4)CCO2)n1 (centres unmarked),-3.215%,-
CC(C)N1CCCC2(CCN(C(=O)CCCn3cncn3)C2)C1=O (centres unmarked),-2.329%,22.97%
Cc1ccc(NC(=O)N(CCO)CCO)c(OCc2ccccc2)c1,-5.514%,-24.48%
CC(C)OC[C@H]1CCC[C@]12CN(C(=O)C1CCOCC1)CCO2,44.18%,-7.319%
Nc1nccc(N2CCCC(CO)(CCOc3ccccc3)C2)n1 (centres unmarked),-4.746%,-5.151%
Cc1ccc(C(=O)N2CCCc3c(c(=O)n(C)n3C)C2)o1,-22.85%,-12.55%
CCn1nc(C)c(CNC(=O)NCC(C)(O)c2ccccc2)c1C (centres unmarked),-3.044%,-22.54%
CCOc1c(F)cccc1C(=O)N(C)CCn1cccn1,6.059%,17.09%
O=C(O)Cc1nc2nccc(-c3ccc(F)cc3)n2n1,-24.97%,-36.18%
Cc1ccc(Oc2ccc(NC(=O)NCC3CCOC3)cn2)cc1C (centres unmarked),46.25%,11.74%
Cc1nn(C)c(N2CCOCC2)c1CNCc1cscn1,20.29%,-
Cc1nn(C)c(C)c1CN(C)C(=O)C1COc2ccccc2C1 (centres unmarked),-3.449%,15.8%
CCCNc1ccc(C(=O)NCCc2ccc(Cl)cc2)cn1,41.07%,-2.852%
Cc1ccc(O)c(C(=O)N2C[C@@H](C(=O)O)[C@H](c3ccccc3)C2)c1,10.15%,-31.23%
CCN(CC)C(=O)[C@@H]1C[C@@H](N)CN1c1nc(N(C)C)nc(C)c1C,1.438%,20.22%
COc1ccc(Br)cc1CC(=O)N1CCCC1,7.614%,13.2%
CN(Cc1cc(C(C)(C)C)n[nH]1)C(=O)c1ccc2nccn2c1,10.34%,19.63%
COc1cccn(CC(=O)N2CCCC3(CCOCC3)C2)c1=O,8.085%,12.26%
CN(C)c1cc(CNC(=O)c2c(F)cccc2F)ccn1,-3.128%,-
O=C(NS(=O)(=O)Cc1ccc(F)cc1)C1CCOc2ccccc21 (centres unmarked),0.8972%,36.81%
CCC(=O)N1CCC(Cc2ccccc2-c2ccncc2)(C(=O)NC)C1 (centres unmarked),-20.39%,-56.01%
Nc1nc(CNc2ncnc3c2CCN(Cc2ccoc2)CC3)cs1,-12.7%,-3.696%
Cc1noc([C@@H]2C[C@H](NS(=O)(=O)Cc3ccccc3)CN2C)n1,-28.08%,-5.331%
O=C(c1ccc[nH]1)N1CCC2(CC1)CC(Oc1cccnc1)CO2 (centres unmarked),-17.02%,-
CCC1CCCN(S(=O)(=O)c2cnn(C)c2)C1 (centres unmarked),-20.05%,-
OC1(CNCCN2CCc3ccccc32)CNCCOC1 (centres unmarked),-21.97%,42.46%
CN(C)C(=O)N1CCc2c(nnn2C)C1COCc1ccccc1 (centres unmarked),18.01%,18.52%
CCn1c(Cn2cncn2)nnc1C1CCN(Cc2ccccn2)CC1,-25.34%,-39.45%
Cc1cc(CN(C)C(=O)c2ccc(F)c(C(F)(F)F)c2)no1,-4.73%,11.38%
O=C(CCc1ccsc1)Nc1cccnc1N1CCCC1,-17.12%,8.029%
CCCc1noc(CN2CCCCC2Cn2cncn2)n1 (centres unmarked),-27.29%,-
Cn1ccnc1CN1CCC2(CC1)CN(c1ccccc1)C(=O)CO2.O=C(O)C(F)(F)F,-14.93%,16.66%
CCOc1ccnc(N2CCN(C(=O)c3cccc(C#N)c3)CC2)n1,-14.07%,20.81%
Cn1ncc2c(NCCOCc3ccccc3)nc(C3CCCC3)nc21,-9.639%,58.05%
[H][C@@]12CN(Cc3ccccc3OC)C[C@]1([H])OCC(=O)N2CCOC,-1.626%,6.935%
CCC(=O)NCC(=O)NCC1CCN(c2cc(Cl)ccc2C)C1 (centres unmarked),-4.009%,-
O=C(NCC1(CO)CC1)c1ccccc1Cl,3.898%,4.562%
Cc1csc(C(C)(C)NCc2ncc(-c3ccccc3)o2)n1,-21.01%,23.52%

For reference, 5 entries once more:

compound,A,B
Cc1ccc(O)c(C(=O)N2C[C@@H](C(=O)O)[C@H](c3ccccc3)C2)c1,10.15%,-31.23%
Cc1noc([C@@H]2C[C@H](NS(=O)(=O)Cc3ccccc3)CN2C)n1,-28.08%,-5.331%
Cn1ncc2c(NCCOCc3ccccc3)nc(C3CCCC3)nc21,-9.639%,58.05%
Cn1ccnc1CN1CCC2(CC1)CN(c1ccccc1)C(=O)CO2.O=C(O)C(F)(F)F,-14.93%,16.66%
CCc1nc(C)sc1CN1CC[C@@](O)(C2CC2)[C@H](C)C1,14.36%,-53.96%